Data as given in PubChem BioAssay AID1259272 (Sanger Institute, 2017).
The deposit covers 794 reagents; shown is a part drawn at random. 7 of them (0.88%) count as active. 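Essential calls reflect knock-down without drug only, not synergy with drugs; drug exposure length not given.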 Viability is capped at 1. No sequences are given here. The record does not give: the amount of reagent, the time to read-out.

Aim: 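Kinome-wide siRNA search for genes whose silencing boosts targeted drug effects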 (primary screen)
System: SW1116 human colorectal cancer cells
Reagent: siRNA pool against human genes
Challenge: anchor drugs BYL719 (1 µM), cetuximab (5 µg/ml) or trametinib (10 nM), or DMSO vehicle; exposure length not given
Measured: 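Replicate-averaged viability versus control-pool wells, with a robust z-score for siRNA alone and a per-drug synergy score (BYL719, cetuximab, trametinib)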
Scale: viability z-score, no drug: higher = more cells remaining; strongly negative means essential gene; viability, no drug: higher = more viable cells; synergy score with BYL719 and synergy score with cetuximab and synergy score with trametinib: higher = stronger synthetic-lethal synergy with the drug
Active means: 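a robust z-score under -3 with siRNA and no drug marks the gene essential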
Meaning of the calls: active = essential (knock-down alone); inactive = no change

gene,"viability z-score, no drug","viability, no drug (fraction of control)",synergy score with BYL719,synergy score with cetuximab,synergy score with trametinib,call
CDK11A,0.307,0.943,-0.1,-0.099,0.0185,inactive
GCK,0.842,1,0.148,0.223,0.16,inactive
TSSK6,-0.575,0.849,-0.0446,-0.0498,0.14,inactive
CDK18,0.842,1,0.0499,-0.0101,-0.00968,inactive
AK3,-0.642,0.842,-0.119,-0.118,-0.0933,inactive
BPTF,-0.763,0.829,-0.134,-0.06,0.114,inactive
HK1,-0.214,0.888,-0.18,-0.0737,-0.0813,inactive
EFNA4,-1.46,0.755,-0.0545,-0.195,-0.0112,inactive
IGF1R,0.842,1,0.0984,0.114,0.0109,inactive
CASP8,0.842,1,-0.0537,-0.0445,-0.0945,inactive
PIK3R2,0.842,1,-0.0788,-0.0757,0.0983,inactive
WT1,0.842,1,0.0146,0.122,0.138,inactive
LIMK1,0.365,0.949,0.0327,-0.0705,0.1,inactive
CDKL1,0.842,1,-0.0788,0.0816,0.0763,inactive
EPHA5,-0.737,0.832,-0.234,-0.0751,-0.0667,inactive
STK38L,0.715,0.986,-0.0222,-0.0882,0.0344,inactive
MAPK13,-0.578,0.849,-0.0574,-0.106,0.088,inactive

A portion taken from the entries so far:
gene,"viability z-score, no drug","viability, no drug (fraction of control)",synergy score with BYL719,synergy score with cetuximab,synergy score with trametinib,call
TSSK6,-0.575,0.849,-0.0446,-0.0498,0.14,inactive
CDK18,0.842,1,0.0499,-0.0101,-0.00968,inactive

Additional records follow.
gene,"viability z-score, no drug","viability, no drug (fraction of control)",synergy score with BYL719,synergy score with cetuximab,synergy score with trametinib,call
AK1,0.842,1,-0.0788,-0.00131,0.143,inactive
DGKD,0.842,1,0.0359,0.0429,0.0354,inactive
STK3,0.842,1,-0.0127,0.0341,0.157,inactive
MYO3B,-1.65,0.735,-0.264,-0.249,-0.0633,inactive
PLK4,-0.383,0.87,-0.033,0.172,0.108,inactive
PRKAR2A,0.785,0.994,0.0306,0.203,0.0946,inactive
BRSK1,0.322,0.945,-0.0641,-0.046,0.122,inactive
KCNH2,0.769,0.992,0.133,0.133,0.213,inactive
HSPB8,-0.234,0.885,-0.103,0.0411,0.067,inactive
TWF1,0.842,1,0.0214,0.0272,0.225,inactive
PKDCC,0.842,1,-0.0788,0.0191,0.214,inactive
PTPN11,-0.229,0.886,-0.11,-0.0766,0.0426,inactive
ULK4,-1.3,0.772,-0.122,0.0342,0.177,inactive
PRKCA,-1.08,0.796,-0.192,-0.0488,0.087,inactive
HIPK4,0.842,1,0.0275,-0.0619,-0.127,inactive
CTCF,0.842,1,-0.0444,-0.0757,-0.163,inactive
ACVR2B,0.68,0.983,0.112,0.0412,0.0958,inactive
PIP4K2B,0.134,0.925,-0.0155,0.0218,0.176,inactive
PDGFRL,0.842,1,0.104,0.0171,0.106,inactive
SGK1,0.842,1,-0.0788,0.0618,0.262,inactive
PANK2,0.842,1,-0.00424,0.109,0.218,inactive
PRKAG2,0.842,1,-0.0159,-0.065,-0.029,inactive
PKN1,0.316,0.944,-0.128,0.0299,-0.0966,inactive
ABL2,0.842,1,0.0494,0.0867,0.0726,inactive
MAP3K14,-0.0856,0.901,0.0154,-0.0266,-0.0874,inactive
PIP5K1C,0.672,0.982,-0.0172,-0.0924,0.0645,inactive
NR4A2,-0.734,0.832,-0.00207,0.0792,0.109,inactive
GK,0.842,1,-0.0201,0.0198,0.119,inactive
LMTK3,0.294,0.942,0.0256,0.0927,0.0711,inactive
NEK8,-2.51,0.643,-0.0791,-0.086,0.0134,inactive
CDC42BPB,0.842,1,-0.0307,-0.0757,-0.107,inactive
TSSK4,0.842,1,-0.0191,0.0135,0.137,inactive
